The other results are listed elsewhere or left out.
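Further: competitive profiling in live THP-1 cells: cysteine peptides tagged with an iodoacetamide desthiobiotin (IA-DTB) probe, intensity after compound treatment relative to DMSO-treated cells.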

Protein sequences, listed by entry. Tags and fused reporters are not part of them. Lines headed by an entry give the natural chain unless they say otherwise; changes in a name come on top.
UniProt O75689: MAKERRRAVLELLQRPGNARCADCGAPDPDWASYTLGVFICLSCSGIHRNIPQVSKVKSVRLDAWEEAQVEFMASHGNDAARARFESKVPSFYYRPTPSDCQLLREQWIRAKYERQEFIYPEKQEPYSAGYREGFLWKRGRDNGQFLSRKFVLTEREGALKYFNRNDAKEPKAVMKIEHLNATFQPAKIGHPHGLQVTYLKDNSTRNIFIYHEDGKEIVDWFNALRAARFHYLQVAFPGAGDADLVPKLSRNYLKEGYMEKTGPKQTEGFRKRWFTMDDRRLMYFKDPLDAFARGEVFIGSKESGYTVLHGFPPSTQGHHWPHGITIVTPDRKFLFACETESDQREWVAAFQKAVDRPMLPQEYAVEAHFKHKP
UniProt P12814, whole entry, looked up: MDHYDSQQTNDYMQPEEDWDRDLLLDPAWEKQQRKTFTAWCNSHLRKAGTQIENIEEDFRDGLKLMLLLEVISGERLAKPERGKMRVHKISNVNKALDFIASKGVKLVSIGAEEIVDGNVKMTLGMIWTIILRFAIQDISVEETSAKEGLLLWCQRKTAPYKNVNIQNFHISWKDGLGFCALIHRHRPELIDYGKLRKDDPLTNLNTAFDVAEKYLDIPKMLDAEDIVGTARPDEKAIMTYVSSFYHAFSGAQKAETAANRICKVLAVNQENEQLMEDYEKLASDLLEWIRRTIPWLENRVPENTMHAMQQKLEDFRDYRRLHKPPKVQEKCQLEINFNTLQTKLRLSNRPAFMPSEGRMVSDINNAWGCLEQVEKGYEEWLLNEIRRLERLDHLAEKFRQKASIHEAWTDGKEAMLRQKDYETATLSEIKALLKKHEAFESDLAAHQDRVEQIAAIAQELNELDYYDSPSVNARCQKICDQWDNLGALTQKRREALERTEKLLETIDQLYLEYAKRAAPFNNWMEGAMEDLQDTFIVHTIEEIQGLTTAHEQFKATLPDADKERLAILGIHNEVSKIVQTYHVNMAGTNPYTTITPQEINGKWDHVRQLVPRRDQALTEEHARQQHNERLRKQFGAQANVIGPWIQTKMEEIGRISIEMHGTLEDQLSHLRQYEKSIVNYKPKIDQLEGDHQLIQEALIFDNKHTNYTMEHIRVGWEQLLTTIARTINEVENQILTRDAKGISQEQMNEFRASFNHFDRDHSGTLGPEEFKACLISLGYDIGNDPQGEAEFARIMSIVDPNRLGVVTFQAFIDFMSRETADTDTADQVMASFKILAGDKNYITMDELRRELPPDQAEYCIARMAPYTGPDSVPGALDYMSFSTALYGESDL
UniProt O60503: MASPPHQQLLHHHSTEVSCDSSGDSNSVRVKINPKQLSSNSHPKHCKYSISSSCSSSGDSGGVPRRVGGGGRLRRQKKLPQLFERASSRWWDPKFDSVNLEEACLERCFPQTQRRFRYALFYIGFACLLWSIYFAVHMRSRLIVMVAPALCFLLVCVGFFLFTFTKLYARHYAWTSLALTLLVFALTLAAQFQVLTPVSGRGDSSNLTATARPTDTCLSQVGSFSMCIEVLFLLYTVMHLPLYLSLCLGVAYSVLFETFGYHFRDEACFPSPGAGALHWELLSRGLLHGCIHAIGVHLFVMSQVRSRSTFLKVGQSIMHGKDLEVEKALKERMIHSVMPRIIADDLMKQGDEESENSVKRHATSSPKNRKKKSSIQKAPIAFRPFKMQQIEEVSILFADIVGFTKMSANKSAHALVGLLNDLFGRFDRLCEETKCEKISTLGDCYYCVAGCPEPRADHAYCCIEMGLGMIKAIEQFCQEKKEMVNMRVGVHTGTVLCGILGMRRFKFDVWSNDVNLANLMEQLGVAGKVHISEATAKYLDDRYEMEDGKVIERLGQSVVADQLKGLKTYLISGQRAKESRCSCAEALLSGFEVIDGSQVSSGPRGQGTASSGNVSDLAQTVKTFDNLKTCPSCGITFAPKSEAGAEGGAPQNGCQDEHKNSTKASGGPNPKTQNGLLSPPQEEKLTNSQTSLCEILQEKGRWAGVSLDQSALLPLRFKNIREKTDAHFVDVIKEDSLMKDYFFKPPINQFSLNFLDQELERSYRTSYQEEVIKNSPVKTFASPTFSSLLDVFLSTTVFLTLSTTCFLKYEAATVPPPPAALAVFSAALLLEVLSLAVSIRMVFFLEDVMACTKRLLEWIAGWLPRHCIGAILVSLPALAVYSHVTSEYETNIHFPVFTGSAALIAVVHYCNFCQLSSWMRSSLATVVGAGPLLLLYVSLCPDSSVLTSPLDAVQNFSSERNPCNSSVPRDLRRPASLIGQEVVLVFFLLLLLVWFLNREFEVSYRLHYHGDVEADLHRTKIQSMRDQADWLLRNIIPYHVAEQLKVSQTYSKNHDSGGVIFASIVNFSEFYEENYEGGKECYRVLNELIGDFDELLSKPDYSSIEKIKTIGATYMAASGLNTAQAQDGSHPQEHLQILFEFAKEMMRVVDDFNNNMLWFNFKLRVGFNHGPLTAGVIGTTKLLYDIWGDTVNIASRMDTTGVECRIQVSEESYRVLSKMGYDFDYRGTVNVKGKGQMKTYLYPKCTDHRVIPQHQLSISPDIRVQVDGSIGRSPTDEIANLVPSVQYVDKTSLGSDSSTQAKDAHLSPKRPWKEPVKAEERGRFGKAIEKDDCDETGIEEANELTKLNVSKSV
UniProt O60488: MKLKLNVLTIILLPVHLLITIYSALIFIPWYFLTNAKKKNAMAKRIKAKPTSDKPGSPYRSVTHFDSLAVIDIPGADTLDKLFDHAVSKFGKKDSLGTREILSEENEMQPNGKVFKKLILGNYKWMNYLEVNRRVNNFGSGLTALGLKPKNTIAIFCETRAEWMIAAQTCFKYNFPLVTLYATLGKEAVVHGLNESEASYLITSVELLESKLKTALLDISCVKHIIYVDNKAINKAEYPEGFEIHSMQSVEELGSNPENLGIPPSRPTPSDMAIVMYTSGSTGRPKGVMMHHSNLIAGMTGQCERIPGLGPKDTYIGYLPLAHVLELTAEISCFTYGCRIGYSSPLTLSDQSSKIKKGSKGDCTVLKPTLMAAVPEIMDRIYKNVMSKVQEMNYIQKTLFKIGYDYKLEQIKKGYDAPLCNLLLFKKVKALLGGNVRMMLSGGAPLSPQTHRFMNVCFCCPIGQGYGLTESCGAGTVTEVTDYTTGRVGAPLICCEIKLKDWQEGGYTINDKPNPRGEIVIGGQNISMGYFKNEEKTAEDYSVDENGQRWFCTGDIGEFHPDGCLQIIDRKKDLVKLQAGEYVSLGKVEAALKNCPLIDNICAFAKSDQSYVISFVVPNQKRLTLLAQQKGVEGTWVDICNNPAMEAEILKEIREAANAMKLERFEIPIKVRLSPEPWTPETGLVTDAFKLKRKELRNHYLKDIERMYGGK
UniProt P33121: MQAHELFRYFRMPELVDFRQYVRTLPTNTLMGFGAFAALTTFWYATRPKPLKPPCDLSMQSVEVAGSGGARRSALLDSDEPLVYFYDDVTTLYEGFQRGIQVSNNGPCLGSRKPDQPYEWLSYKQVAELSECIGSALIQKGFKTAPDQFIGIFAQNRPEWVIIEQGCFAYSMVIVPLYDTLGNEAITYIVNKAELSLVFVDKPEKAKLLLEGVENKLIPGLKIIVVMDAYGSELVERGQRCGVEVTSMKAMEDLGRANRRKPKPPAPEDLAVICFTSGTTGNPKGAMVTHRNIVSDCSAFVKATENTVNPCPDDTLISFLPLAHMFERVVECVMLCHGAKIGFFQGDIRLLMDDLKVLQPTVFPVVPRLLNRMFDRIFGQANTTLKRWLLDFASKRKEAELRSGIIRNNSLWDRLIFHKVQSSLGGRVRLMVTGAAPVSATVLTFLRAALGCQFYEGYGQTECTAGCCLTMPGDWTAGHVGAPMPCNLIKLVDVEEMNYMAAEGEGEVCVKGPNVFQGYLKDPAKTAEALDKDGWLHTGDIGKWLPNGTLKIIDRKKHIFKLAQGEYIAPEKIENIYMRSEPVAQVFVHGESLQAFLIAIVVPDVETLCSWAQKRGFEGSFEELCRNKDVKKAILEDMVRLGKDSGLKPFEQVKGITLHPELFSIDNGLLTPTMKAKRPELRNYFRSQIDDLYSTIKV
UniProt P30566: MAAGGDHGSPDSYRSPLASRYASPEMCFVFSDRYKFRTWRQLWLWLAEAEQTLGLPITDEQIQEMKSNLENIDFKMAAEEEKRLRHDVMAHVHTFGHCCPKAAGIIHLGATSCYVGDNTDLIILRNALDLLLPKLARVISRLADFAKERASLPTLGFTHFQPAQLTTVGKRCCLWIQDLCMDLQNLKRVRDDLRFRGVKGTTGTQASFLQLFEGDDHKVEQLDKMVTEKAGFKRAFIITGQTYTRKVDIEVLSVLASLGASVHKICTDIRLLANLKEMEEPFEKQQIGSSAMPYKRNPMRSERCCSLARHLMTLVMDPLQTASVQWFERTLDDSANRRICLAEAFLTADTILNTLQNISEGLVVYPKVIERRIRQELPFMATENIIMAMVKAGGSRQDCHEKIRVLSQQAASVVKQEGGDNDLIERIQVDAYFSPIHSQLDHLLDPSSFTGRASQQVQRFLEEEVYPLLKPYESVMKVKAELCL
UniProt P55263: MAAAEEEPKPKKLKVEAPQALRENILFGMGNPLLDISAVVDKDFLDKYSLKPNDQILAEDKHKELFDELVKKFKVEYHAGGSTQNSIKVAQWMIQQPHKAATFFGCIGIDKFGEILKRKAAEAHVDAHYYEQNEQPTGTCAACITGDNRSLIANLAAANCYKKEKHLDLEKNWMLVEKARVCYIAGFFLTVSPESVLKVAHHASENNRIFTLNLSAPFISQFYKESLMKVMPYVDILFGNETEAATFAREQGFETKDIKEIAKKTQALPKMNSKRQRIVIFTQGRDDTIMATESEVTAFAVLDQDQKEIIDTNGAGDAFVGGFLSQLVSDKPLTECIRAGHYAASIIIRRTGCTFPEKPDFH
UniProt O14672: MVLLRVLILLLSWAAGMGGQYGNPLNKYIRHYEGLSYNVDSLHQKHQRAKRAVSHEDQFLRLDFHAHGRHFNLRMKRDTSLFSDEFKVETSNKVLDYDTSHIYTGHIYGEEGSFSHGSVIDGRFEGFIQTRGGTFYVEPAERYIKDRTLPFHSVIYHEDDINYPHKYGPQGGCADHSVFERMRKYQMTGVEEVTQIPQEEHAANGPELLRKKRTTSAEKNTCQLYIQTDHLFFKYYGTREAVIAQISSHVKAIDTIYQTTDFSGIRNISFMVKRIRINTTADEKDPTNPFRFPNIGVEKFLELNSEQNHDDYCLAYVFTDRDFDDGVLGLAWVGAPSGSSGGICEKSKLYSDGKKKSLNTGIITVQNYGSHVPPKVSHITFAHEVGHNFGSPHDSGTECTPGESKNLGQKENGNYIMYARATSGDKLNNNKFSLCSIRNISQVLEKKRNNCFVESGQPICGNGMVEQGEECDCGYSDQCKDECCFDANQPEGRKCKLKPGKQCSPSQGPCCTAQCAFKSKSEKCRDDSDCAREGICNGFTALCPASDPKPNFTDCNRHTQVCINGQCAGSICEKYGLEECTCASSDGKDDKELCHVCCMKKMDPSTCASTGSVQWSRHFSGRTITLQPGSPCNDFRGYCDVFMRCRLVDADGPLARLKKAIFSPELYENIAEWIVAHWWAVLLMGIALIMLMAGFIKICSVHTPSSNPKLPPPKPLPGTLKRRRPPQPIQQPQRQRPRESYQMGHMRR
UniProt Q03154: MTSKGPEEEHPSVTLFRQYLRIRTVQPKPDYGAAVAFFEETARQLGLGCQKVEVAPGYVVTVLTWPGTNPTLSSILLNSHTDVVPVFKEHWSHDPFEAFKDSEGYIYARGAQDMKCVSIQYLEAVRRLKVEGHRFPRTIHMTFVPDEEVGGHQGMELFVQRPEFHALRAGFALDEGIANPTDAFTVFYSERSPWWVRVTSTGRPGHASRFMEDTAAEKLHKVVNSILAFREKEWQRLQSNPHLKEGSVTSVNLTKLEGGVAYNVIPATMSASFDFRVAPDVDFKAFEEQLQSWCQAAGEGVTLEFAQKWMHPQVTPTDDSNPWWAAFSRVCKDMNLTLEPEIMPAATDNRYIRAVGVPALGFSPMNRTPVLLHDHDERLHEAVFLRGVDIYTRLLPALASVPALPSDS

Compound in this test: Cc1cc(ccc1-c1ccccc1)C(=O)N1CCCN(CC1)C(=O)CCl [compound 10]
Kind of test: probe-labelled cysteine peptide fold change vs DMSO (competition) (log2 fold change); higher = less target engagement (more negative = stronger competition). Particulars: 10 µM; THP-1; incubation time: 4 h.
As for “ADAP1_O75689_101_VPSFYYRPTPSDCQLLR (UniProt O75689)”, the “probe-labelled cysteine peptide fold change” value is -0.108.

On to “ACTN1_P12814_476_CQKICDQWDNLGALTQKRR (UniProt P12814)”, for which the “probe-labelled cysteine peptide fold change” value turned out to be 0.24.

On to “ACTR3_P61158_394_YAVWFGGSMLASTPEFYQVCHTKK (UniProt P61158)”, for which the “probe-labelled cysteine peptide fold change” value was -0.25.

On to “ACTN4_O43707_879_RELPPDQAEYCIAR (UniProt O43707)”, for which the “probe-labelled cysteine peptide fold change” value was 0.0469.

Take “ADCY9_O60503_654_SEAGAEGGAPQNGCQDEHK (UniProt O60503)”: the “probe-labelled cysteine peptide fold change” value is -0.197.

Consider “ACSL4_O60488_170_AEWMIAAQTCFK (UniProt O60488)”, for which the “probe-labelled cysteine peptide fold change” value was determined as 0.0551.

Turning to “ACSL1_P33121_132_QVAELSECIGSALIQK (UniProt P33121)”, the “probe-labelled cysteine peptide fold change” value was found to be 0.021.

With “ACSL4_O60488_221_TALLDISCVK (UniProt O60488)”, the “probe-labelled cysteine peptide fold change” value was determined as 0.177.

For “ADSL_P30566_113_AAGIIHLGATSCYVGDNTDLIILR (UniProt P30566)”, the “probe-labelled cysteine peptide fold change” value was -0.268.

As to “ACTR2_P61160_221_LCYVGYNIEQEQK (UniProt P61160)”, the “probe-labelled cysteine peptide fold change” value was found to be 0.175.

With “ADK_P55263_353_TGCTFPEKPDFH (UniProt P55263)”, the “probe-labelled cysteine peptide fold change” value is -0.0352.

Turning to “AGL_P35573_486_ELICWGDSVK (UniProt P35573)”, the “probe-labelled cysteine peptide fold change” value was 0.0938.

Regarding “ADAM10_O14672_582_YGLEECTCASSDGKDDK (UniProt O14672)”, the “probe-labelled cysteine peptide fold change” value amounted to 0.0474.

Turning to “ACTR8_Q9H981_179_WTNTSHHPEYLVGEEALYVNPLDCYNIHWPIR (UniProt Q9H981)”, the “probe-labelled cysteine peptide fold change” value is -0.0279.

“ADGRA2_Q96PE1_194+196_VVDLGTEFLTCDCHLR (UniProt Q96PE1)”: the “probe-labelled cysteine peptide fold change” value is -0.0444.

For “ACY1_Q03154_116_CVSIQYLEAVR (UniProt Q03154)”, the “probe-labelled cysteine peptide fold change” value was 0.144.

The values are drawn from the supplement of paper PMC12067093, “Discovery and optimisation of a covalent ligand for TRIM25 and its application to targeted protein ubiquitination” (Chemical Science, 2025).
